These results are taken from the M2OR odorant receptor database.

Chains of the proteins cited; added tags and fusions are not shown. A line that says so, or that is headed by a name, gives the form on record, which may keep a tag or linker.
O11H2, as listed by the source: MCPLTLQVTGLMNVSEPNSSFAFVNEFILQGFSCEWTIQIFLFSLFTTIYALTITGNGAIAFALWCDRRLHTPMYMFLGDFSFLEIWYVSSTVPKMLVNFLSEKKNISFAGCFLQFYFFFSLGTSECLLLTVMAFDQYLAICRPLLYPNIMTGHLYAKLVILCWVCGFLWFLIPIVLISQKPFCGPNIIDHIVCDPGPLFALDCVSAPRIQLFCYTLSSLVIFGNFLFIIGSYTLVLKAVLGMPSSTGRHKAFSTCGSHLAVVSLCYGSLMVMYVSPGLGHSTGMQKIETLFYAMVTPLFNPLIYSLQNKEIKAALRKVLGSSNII

Common to all, as to settings: stereoisomer not certain
For one test, the system named is T1, O10J3.
T1 sequence (whole entry): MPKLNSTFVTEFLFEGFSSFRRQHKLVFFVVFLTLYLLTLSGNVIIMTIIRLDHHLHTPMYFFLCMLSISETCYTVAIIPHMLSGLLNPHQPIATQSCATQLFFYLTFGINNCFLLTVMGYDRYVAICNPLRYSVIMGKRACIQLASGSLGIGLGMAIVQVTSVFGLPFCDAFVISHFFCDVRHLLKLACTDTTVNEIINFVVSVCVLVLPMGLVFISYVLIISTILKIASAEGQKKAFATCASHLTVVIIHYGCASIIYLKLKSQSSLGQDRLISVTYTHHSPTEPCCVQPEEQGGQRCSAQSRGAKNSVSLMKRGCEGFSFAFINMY
In short, it runs like this: (§1)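 Each entry records the cell line, G-protein, co-transfected protein and tags used. Methods varied with the source, often transient luciferase assays in mammalian cell lines. A receptor–molecule pair is called responsive (active) if the original authors judged its signal statistically different from baseline and non-responsive (inactive) otherwise.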

The subject of another test is T2, O10J5.
T2 sequence (whole entry): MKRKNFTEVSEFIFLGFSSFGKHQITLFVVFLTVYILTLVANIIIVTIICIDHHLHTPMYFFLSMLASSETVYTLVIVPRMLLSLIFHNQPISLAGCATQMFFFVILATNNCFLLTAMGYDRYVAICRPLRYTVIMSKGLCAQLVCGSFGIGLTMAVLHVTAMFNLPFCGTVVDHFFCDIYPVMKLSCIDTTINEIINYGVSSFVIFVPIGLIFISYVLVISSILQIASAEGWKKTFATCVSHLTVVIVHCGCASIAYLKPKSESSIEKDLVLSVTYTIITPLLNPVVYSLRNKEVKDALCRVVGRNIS
In short, it runs like this:
as §1

For another test, the system named is T3, O10P1.
T3 sequence (whole entry): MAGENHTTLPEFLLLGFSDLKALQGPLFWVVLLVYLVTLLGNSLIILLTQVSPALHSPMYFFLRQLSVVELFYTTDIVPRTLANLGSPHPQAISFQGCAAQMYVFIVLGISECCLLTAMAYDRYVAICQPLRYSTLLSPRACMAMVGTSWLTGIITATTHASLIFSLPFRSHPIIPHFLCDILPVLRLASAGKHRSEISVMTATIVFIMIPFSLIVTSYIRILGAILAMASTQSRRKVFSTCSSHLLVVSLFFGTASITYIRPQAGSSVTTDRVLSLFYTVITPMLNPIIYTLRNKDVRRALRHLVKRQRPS
In short, it runs like this:
as §1

In a further test the test system is T4, O10Q1.
T4 sequence (whole entry): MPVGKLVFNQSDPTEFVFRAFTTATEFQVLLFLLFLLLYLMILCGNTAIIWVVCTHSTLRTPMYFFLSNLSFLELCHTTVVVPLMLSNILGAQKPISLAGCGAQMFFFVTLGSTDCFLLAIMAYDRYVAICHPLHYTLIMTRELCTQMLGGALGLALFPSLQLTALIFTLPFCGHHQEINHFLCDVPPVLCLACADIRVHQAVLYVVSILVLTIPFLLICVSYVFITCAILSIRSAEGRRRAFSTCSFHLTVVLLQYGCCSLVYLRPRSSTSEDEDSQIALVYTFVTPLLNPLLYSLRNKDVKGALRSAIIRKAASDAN
In short, it runs like this: as §1

Test [1] concerns T5, O10R2.
T5 sequence (whole entry): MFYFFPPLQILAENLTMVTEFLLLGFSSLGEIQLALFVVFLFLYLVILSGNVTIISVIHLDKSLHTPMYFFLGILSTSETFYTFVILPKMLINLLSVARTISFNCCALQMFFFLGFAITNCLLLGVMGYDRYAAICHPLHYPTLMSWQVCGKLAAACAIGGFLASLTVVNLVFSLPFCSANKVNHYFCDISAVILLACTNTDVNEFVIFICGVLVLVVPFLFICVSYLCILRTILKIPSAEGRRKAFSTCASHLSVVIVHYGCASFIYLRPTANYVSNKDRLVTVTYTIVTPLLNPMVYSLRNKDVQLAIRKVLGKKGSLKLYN
The method, boiled down:
as §1

Test [2] has as its system T6, O10R2.
T6 sequence (whole entry): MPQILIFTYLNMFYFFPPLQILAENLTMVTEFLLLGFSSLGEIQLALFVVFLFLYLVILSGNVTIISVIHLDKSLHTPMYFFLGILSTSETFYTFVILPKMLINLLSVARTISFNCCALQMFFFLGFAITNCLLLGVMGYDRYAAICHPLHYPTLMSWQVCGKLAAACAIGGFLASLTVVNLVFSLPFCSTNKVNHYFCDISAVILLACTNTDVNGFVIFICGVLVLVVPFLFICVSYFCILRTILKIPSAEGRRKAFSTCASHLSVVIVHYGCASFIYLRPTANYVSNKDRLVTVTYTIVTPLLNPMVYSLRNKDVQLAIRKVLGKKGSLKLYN
The method, boiled down:
as §1
This is another data set of the same source.

In the next test the test system is T7, O10V1.
T7 sequence (whole entry): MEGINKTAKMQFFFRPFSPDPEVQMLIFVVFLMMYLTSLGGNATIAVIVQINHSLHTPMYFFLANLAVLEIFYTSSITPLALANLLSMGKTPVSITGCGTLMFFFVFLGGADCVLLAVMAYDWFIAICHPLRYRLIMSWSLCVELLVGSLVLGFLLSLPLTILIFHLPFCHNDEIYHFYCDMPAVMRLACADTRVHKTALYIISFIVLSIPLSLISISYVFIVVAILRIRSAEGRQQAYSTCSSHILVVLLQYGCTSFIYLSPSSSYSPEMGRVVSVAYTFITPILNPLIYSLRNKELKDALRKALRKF
In short, it runs like this:
as §1

The next test has as its system T8, O10W1.
T8 sequence (whole entry): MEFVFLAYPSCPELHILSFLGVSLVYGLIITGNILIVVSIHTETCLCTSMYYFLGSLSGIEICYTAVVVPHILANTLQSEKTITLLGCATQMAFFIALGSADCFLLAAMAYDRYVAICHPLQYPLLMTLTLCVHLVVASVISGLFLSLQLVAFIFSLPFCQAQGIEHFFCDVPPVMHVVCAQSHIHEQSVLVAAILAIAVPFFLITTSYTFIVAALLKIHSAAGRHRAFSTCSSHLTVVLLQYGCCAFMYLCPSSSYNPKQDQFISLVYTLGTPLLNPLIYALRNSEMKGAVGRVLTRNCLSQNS
The method, boiled down: as §1

In a further test the test system is T9, O10X1.
T9 sequence (whole entry): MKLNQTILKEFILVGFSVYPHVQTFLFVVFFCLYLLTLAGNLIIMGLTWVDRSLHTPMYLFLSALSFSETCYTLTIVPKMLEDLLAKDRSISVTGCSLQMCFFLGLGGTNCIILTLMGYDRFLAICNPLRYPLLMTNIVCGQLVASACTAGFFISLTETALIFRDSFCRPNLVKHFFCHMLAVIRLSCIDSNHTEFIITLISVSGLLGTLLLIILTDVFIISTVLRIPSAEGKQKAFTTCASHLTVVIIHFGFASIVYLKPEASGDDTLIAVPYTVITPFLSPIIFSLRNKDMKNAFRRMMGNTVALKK
The method, boiled down: as §1

The next test deals with T10, O11G2.
T10 sequence (whole entry): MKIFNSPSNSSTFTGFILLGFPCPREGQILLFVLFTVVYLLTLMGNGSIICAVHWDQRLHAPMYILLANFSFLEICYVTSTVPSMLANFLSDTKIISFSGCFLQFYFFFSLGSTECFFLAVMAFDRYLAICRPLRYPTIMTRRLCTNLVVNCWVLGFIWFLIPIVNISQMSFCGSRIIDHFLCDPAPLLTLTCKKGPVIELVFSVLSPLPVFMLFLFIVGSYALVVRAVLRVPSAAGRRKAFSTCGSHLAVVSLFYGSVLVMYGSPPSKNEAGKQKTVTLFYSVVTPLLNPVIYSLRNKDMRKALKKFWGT
In short, it runs like this:
as §1

The subject of test [3] is T11, O11H1.
T11 sequence (whole entry): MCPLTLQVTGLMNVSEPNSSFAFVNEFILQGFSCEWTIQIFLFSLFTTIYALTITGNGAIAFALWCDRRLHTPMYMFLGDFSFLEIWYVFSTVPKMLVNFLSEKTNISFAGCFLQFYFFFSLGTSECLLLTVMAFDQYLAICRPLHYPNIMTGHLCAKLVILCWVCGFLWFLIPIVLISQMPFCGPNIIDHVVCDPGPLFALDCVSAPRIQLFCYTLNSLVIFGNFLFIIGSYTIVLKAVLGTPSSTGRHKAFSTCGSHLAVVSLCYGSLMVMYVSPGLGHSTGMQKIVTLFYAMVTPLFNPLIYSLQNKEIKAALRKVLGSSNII
The method, boiled down: as §1

In test [4] the test system is T12, O11H1.
T12 sequence (whole entry): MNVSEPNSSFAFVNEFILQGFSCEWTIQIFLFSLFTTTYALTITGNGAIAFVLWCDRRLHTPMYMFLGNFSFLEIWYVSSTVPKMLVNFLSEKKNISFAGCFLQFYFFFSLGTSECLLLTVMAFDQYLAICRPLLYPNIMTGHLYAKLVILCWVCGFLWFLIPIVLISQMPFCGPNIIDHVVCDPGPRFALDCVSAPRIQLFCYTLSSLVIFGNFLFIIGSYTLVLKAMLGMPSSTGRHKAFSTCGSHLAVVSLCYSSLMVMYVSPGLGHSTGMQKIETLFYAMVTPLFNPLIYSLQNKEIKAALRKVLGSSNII
In short, it runs like this: as §1
The source holds these as a separate data set.

A further test relates to T13, O11H2.
T13 sequence (whole entry): T11 sequence (whole entry) with F90S, T105K, H146L, C156Y, M181K, V192I, N218S, I235L, T243M, V289E
In short, it runs like this: as §1

The next test deals with T14, O11H4.
T14 sequence (whole entry): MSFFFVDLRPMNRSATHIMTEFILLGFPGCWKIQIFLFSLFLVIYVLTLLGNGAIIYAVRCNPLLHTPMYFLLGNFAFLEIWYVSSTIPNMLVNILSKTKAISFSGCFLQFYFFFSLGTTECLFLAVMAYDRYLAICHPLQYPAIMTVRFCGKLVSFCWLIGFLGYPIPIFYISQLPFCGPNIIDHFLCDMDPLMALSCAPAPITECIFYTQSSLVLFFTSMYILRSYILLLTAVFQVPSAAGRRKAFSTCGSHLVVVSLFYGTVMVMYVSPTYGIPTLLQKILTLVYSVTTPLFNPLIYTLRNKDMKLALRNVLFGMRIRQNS
The method, boiled down: as §1

The subject of the next test is T15, O11L1.
T15 sequence (whole entry): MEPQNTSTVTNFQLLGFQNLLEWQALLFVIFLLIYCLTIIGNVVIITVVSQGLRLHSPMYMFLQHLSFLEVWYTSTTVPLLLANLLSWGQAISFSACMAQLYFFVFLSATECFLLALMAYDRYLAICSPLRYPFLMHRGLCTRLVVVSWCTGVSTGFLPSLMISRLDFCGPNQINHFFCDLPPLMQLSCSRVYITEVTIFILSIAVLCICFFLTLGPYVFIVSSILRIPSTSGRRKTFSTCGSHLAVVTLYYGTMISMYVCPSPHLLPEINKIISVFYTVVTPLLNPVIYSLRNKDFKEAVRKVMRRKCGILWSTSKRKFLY
The method, boiled down: as §1

Another test deals with T16, O12D2.
T16 sequence (whole entry): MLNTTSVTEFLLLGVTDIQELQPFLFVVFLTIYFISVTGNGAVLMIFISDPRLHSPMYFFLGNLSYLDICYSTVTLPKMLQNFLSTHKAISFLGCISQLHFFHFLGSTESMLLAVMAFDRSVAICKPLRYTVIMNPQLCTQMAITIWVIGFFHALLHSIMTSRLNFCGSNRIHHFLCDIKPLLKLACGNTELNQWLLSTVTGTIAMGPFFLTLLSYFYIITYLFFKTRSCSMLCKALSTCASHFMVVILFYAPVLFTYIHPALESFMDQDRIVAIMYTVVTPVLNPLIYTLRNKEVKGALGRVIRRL
In short, it runs like this: as §1

The test system of a further test is T17, O13C3.
T17 sequence (whole entry): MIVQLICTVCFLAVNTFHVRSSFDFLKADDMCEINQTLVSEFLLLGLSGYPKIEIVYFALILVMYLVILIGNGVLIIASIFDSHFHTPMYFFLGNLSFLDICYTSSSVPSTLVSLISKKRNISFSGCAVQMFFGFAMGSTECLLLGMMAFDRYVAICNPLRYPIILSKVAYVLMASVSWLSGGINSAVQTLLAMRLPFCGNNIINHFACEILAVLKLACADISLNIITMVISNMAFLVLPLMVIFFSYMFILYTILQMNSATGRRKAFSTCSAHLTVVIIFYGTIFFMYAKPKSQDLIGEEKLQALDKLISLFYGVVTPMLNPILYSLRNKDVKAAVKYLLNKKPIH
The method, boiled down:
as §1

Numbering of substitutions follows the chain as printed. The list shows a part of the results. Calls are pooled over several reports, among them a noisy single-well screen.

For the molecule `CC1=CCC(C(C)(C)O)CC1` (stereo unspecified), the “odorant receptor agonist call” value in the test with O10J3, in the test with O10J5, in the test with O10P1, in the test on O10Q1, with O10R2 [1] and in the test on O10R2 [2] was “inactive” in each case. Also, the “odorant receptor agonist call” value in the test on O10V1, with O10W1, in the test on O10X1, with O11G2, in the test on O11H1 [3] and in the test on O11H1 [4] was “inactive” throughout. The “odorant receptor agonist call” value with O11H2, in the test with O11H4, in the test on O11L1, in the test with O12D2 and in the test with O13C3 was “inactive” in each case.
As to `CC(=O)c1ccccc1`, the “odorant receptor agonist call” value in the test on O10J5, in the test on O10P1, with O10Q1, in the test with O10R2 [1], in the test on O10R2 [2] and in the test on O10V1 was “inactive” throughout. The “odorant receptor agonist call” value with O10W1, in the test on O10X1, with O11H1 [3], in the test on O11H2, with O11H4 and in the test with O11L1 was “inactive” throughout. Also, the “odorant receptor agonist call” value in the test on O12D2 was “inactive”. Moreover, the “odorant receptor agonist call” value with O13C3 is “active”.
